Data as given in publication doi:10.1101/540781.
No constants are given. Whether binding was seen depends on the method and setting. In cells and extracts the contact can be indirect. Binding can be weak; no strength is given. Where a sequence is shown, tags or fusion partners need not be part of it.

The chains behind the UniProt entries cited, without tags or fusion partners. Where a name states a change or a piece, a line headed by the entry shows the natural chain unless it says otherwise.
UniProt O14745: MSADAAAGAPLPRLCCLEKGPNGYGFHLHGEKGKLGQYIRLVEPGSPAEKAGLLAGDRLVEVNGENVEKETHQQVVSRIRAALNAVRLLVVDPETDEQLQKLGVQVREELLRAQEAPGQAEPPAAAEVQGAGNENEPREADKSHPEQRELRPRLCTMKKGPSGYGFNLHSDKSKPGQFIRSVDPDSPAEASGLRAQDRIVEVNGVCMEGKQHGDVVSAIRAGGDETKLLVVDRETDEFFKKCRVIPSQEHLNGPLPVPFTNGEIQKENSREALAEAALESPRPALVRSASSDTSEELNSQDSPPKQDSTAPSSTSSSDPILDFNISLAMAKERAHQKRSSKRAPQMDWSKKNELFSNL

Target: NHERF1 S1 (GYGF core-binding motif mutated to GAGA in PDZ1) (human) (UniProt O14745)
Experiment: co-IP

binding: binds
B1: FLAG-RGS14 (wild-type human regulator of G protein signaling 14) (protein, UniProt O43566 1-566)
chain: MPGKPKHLGVPNGRMVLAVSDGELSSTTGPQGQGEGRGSSLSIHSLPSGPSSPFPTEEQPVASWALSFERLLQDPLGLAYFTEFLKKEFSAENVTFWKACERFQQIPASDTQQLAQEARNIYQEFLSSQALSPVNIDRQAWLGEEVLAEPRPDMFRAQQLQIFNLMKFDSYARFVKSPLYRECLLAEAEGRPLREPGSSRLGSPDATRKKPKLKPGKSLPLGVEELGQLPPVEGPGGRPLRKSFRRELGGTANAALRRESQGSLNSSASLDLGFLAFVSSKSESHRKSLGSTEGESESRPGKYCCVYLPDGTASLALARPGLTIRDMLAGICEKRGLSLPDIKVYLVGNEQALVLDQDCTVLADQEVRLENRITFELELTALERVVRISAKPTKRLQEALQPILEKHGLSPLEVVLHRPGEKQPLDLGKLVSSVAAQRLVLDTLPGVKISKARDKSPCRSQGCPPRTQDKATHPPPASPSSLVKVPSSATGKRQTCDIEGLVELLNRVQSSGAHDQRGLLRKEDLVLPEFLQLPAQGPSSEETPPQTKSAAQPIGGSLNSTTDSAL
